The results in this text go back to article PMC9481931.

Results are given in words; binding and its absence hold for the method and conditions named. Binding seen in cells or lysates may run through a third protein. Binding calls can cover weak binding; strength is not graded here.

The experiment has as its target T1, Ataxin-2 (Drosophila melanogaster (endogenous in embryo extracts)) (UniProt Q8SWR8).
T1 sequence: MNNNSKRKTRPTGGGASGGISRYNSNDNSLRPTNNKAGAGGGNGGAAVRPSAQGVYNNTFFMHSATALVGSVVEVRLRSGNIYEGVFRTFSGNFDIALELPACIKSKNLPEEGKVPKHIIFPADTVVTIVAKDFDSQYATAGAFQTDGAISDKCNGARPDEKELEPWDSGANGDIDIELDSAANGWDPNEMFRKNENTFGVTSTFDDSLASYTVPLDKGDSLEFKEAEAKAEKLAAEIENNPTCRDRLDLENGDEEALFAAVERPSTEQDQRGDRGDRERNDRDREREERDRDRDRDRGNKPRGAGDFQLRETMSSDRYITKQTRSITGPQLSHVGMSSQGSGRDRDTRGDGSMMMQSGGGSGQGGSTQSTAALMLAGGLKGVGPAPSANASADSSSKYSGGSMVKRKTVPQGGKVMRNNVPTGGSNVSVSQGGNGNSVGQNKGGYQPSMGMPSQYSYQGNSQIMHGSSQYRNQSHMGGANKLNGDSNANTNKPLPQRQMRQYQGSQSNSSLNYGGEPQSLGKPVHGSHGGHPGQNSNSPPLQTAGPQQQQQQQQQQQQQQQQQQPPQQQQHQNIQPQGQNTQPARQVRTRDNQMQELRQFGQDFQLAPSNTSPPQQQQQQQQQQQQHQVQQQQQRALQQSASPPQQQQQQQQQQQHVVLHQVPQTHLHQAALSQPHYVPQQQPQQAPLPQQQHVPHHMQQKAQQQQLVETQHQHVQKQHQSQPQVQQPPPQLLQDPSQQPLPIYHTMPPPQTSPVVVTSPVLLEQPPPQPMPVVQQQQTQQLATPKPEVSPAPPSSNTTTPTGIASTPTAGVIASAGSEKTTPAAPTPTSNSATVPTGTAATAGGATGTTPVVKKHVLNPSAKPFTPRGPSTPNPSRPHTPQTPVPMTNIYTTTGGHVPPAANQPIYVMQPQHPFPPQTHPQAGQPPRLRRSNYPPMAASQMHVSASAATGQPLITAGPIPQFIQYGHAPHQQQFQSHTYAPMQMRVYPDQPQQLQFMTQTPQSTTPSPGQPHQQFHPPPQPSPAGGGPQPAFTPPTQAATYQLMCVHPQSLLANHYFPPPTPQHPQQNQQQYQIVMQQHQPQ
The experiment in a line: co-IP; small-scale IP with 2 ul Atx2 serum on Protein-A Dynabeads, 700 ug embryo extract (wild type and Dicer-2 null), performed as in Fig 3D (RNases); Western blot; interactions with Wispy and Tyf fully preserved in Dicer-2 null extracts (Fig 3E). Background: In western blotting, separated proteins are transferred to a membrane and probed.

Twenty-four: the binding result is “binds”.
